From patent publication US20100331384A1, “GUANIDINE BASED COMPOUNDS” (UNIVERSIDAD DEL PAIS VASCO/EUSKAL HERRIKO UNIBERTSITATEA, priority 2007, published 2010)

Chains of the proteins cited; added tags and fusions are not shown.
UniProt P08913, whole entry: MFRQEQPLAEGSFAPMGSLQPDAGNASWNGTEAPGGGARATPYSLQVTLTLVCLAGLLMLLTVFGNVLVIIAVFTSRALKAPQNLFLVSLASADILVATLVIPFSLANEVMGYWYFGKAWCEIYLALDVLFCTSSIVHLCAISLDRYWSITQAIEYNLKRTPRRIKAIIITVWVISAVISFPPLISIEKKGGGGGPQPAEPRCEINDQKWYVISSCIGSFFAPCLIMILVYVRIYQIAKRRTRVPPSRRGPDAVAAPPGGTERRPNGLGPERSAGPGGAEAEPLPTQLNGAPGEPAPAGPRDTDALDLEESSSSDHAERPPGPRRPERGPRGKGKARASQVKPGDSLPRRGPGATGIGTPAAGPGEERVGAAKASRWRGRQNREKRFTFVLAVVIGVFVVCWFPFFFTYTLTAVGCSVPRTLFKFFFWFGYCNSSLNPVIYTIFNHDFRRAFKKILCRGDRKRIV

Key:
α2-ARs [1] = biological target: T1, α2-ARs (Homo sapiens, UniProt P08913); test: [3H]RX821002 competition binding assay in human brain PFC membranes; details: human brain tissue in vitro
T1 construct: other: human brain tissue in vitro; other: stimulation of [35S]GTPγS b

α2-ARs [2] = biological target: T1, α2-ARs; test: [35S]GTPγS binding functional assay, compounds alone; format: biochemical
Procedure: The [^35S]GTPγs binding assay constitutes a functional measure of the interaction of the receptor and the G-protein and is a useful tool to distinguish between agonists (increasing the nucleotide binding), inverse agonists (decreasing the nucleotide binding), and neutral antagonists (not affecting the nucleotide binding) of GPCRs.^20 Experiments were performed in low-affinity receptor conditions for agonists (presence of guanine nucleotides and sodium in the medium), and therefore, typical potency values are two-three logarithmic units lower than affinity values obtained in radioligand receptor binding experiments.^20
Preparation of membranes. Neural membranes (P2 fractions) were prepared from the PFC of human brains obtained at autopsy in the Instituto Vasco de Medicina Legal, Bilbao, Spain. Postmortem human brain samples of each subject (˜1 g) were homogenized using a Teflon-glass grinder (10 up-and-down strokes at 1500 rpm) in 30 volumes of homogenization buffer (1 mM MgCl2, and 5 mM Tris-HCl, pH 7.4) supplemented with 0.25 M sucrose. […]
[^35S]GTPγs binding assays. […] The filters were rinsed twice with 3 mL of ice-cold re-suspension buffer, transferred to vials containing 5 mL of OptiPhase HiSafe II cocktail (Wallac, UK) and the radioactivity trapped was determined by liquid scintillation spectrometry (Packard 2200CA). […]

## Cc1ccc(NC(=N)N)cc1C [Compound 15b, 1-guanidino-3,4-dimethylbenzene]
α2-ARs [1]
  affinity towards the α2-ARs compared with references: within the range of those of Idazoxan and/or Clonidine
α2-ARs [2]; human brain PFC
  agonistic or antagonistic properties in [35S]GTPγS experiments: agonistic properties
α2-ARs [2]; human brain PFC membranes
  stimulation of [35S]GTPγS binding by the compound on its own: stimulated binding
